Here are results for one sequence from article PMC3557383.

The data set has as its target T1, RepA (ORF3) (Moraxella bovis ATCC 10900 (plasmid pMbo4.6)) (UniProt D0V0D3).
T1 sequence (looked up): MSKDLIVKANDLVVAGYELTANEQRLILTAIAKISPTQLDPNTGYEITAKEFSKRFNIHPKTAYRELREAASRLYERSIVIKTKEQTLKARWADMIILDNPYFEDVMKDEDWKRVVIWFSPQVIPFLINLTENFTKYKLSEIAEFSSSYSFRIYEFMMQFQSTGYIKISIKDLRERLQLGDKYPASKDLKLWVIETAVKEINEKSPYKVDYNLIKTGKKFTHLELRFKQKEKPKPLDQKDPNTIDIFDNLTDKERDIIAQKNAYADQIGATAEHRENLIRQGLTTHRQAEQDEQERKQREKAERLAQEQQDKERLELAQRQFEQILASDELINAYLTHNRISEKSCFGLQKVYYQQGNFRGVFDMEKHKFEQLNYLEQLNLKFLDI
The data set is described as follows: EMSA. Conditions: 50-800 ng RepA, 90 ng DNA; 10 mM Tris-HCl pH 7.5, 10 mM MgCl2, 100 mM NaCl, 0.2 mM DTT, 5% glycerol, 30 ul, 22 C 20 min; 6% PAGE 0.4x TBE at 4 C; recombinant protein; residues 1-386; probe letters rebuilt from the primers and the genome. On the technique in general: Mobility shift assays separate free from complexed probe on a gel.

Tags and fusion partners may be left off the protein sequences shown.

Take “AAGAATTCGGGCGTGGTTTTGGGGATTGATTTTGTTTTGTCTTTTTAGCTAAAAAAACAAGAAAATTAACAAGAAAAAGAGCCAAAACCGAGTGCTTTTTCGGTTTTGGCGTTTTTTTATTTTTTTAATATATTTTTAATAGTTTTTAGACCCCCTGCAAAGCCTTATGTATCAAAGGTTTGCGAGACCTAACTAGGAGGGATTGACTACCAAATAGGAGGGATTGACTACTCAAATAGGAGGGATTGACTACTCAAATAGGAGGGATTGACTACCAAATAGGAGTATTTACAATAACTCTTTTTAGGTGTATAATTAATTACTCCTTTTTTGCTAATGAGACCTAAAAATGAGCAAAGATTTAATTGTAGGATCCAA (double strand) [orirep35]”: the binding result is “binds”.
